A short description of this series: general procedure: Fmoc solid-phase peptide synthesis; Fmoc Rink Amide MBHA; HBTU/HOBT/DIPEA (automated); diisopropylcarbodiimide/HOBT (manual). As to conditions: whole synthesis, scale 0.25 mmol.

Take “Phv-Ala-Ala-Ala-II-Val-Ala-Ala-Ala-Pip-NH2”: the isolated mass is recorded as 83 mg. Also, the “final HPLC purity” value (RP-HPLC (Vydac C18 218TP54)) amounted to 94%.
